In PMC7819943, “Rice protein-binding microarrays: a tool to detect cis-acting elements near promoter regions in rice” one finds binding signal data, which are given here for 54 sequences.

Sequences of proteins named here, by UniProt entry; tags and fusion partners are left off.
UniProt Q0JBA9, entry or part of it: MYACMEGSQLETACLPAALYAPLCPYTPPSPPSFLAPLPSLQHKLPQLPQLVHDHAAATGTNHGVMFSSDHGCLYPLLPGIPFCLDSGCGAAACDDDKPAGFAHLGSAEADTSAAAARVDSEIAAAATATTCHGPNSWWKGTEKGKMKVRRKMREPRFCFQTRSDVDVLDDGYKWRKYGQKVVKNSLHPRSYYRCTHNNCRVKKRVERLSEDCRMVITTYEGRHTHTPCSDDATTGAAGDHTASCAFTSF

Some of the results follow.

In this test the target is OsWRKY34 (Oryza sativa, UniProt Q0JBA9 1-250). Put plainly: protein-binding microarray (RPBM); PBS, 2% BSA, 51.3 ng/ul salmon testes DNA, 50 uM zinc acetate, 200 nM TF, 25 C, 1 h; high values mean tight binding. The settings on record: protein: recombinant; tags: N-terminal polyhistidine and DsRed monomer fusion (pET32a); label: CyDye5-dUTP incorporated in the synthesized complementary strand; 3' TTTTT single-stranded linker to array surface; dsDNA, one strand shown. The method, boiled down: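 Binding signal is defined as the fluorescence intensity of each feature in arbitrary units, read on an Axon 4000B scanner. Transcription factors with N-terminal polyhistidine and DsRed fusions came from E. coli BL21-CodonPlus and were purified on Ni–NTA. They were incubated at 200 nM for 1 h at 25 °C on a custom Agilent array that had been made double-stranded with Cy5-dUTP, with 50 µM zinc acetate present, and the array was washed.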
As to “ACCTACCTATACTTCTTATCCAATCACAACCTTATTTTTACGGAGTCACCTAGTGCAG”, the binding signal is 10600 fluorescence intensity (a.u.).

On to “TCCTTTCCACCCTCTCATCAGTTTGCCCACACAGCCGCCGCGGAGTCACCTAGTGCAG”, for which the binding signal is 8170 fluorescence intensity (a.u.). “CTCCTTTAATTACCATGTATCTCTGTTTTGTACCTCTATCCGGAGTCACCTAGTGCAG”: the binding signal is 12300 fluorescence intensity (a.u.).

With “GCCCGGCTTTCCCGCGGCGCGCTCTTCTCCTTCCTATAAACGGAGTCACCTAGTGCAG”, the binding signal is 8960 fluorescence intensity (a.u.). “TTCACATATATGTGTGCTGTGATTTTTTTTCTTCCTTACCCGGAGTCACCTAGTGCAG”: the binding signal was 8400 fluorescence intensity (a.u.). Take “TTCTTCCCCACCGCCGCGGCTGTCCTCCTCACGGGCTTCTCGGAGTCACCTAGTGCAG”: the binding signal is 8140 fluorescence intensity (a.u.). Take “TTTTCCAAACTTCCAACTTTCTATCACATCAAACCTTTCACGGAGTCACCTAGTGCAG”: the binding signal is 8100 fluorescence intensity (a.u.). As to “AGAAATTTACGCGACTTTTTTTTTTGTCTTTGATAAATATCGGAGTCACCTAGTGCAG”, the binding signal was 8500 fluorescence intensity (a.u.). In the case of “AAGGTAATCGACAACTAGCGCAAGTCCTTTTCATTTTCTTCGGAGTCACCTAGTGCAG”, the binding signal is 9100 fluorescence intensity (a.u.).

For the sequence “GTTGTTTTGACTTTGGTAAAAGTCAAACTATTTAAATTTGCGGAGTCACCTAGTGCAG”, the binding signal is 14100 fluorescence intensity (a.u.). As to “GCCGACCGCTGTCGTCGACCCTACCCTACCCTCATACGATCGGAGTCACCTAGTGCAG”, the binding signal was 8890 fluorescence intensity (a.u.).

Take “CTCCTACAAGCCGCCGCTCCGACCTCGCCGTCGCCGGTCGCGGAGTCACCTAGTGCAG”: the binding signal is 8160 fluorescence intensity (a.u.). The figure for “CTACGACCACCACCACCACCACCACCCTCCGGCCGGCGAGCGGAGTCACCTAGTGCAG” is 10800 fluorescence intensity (a.u.); for “TGCCGCCCGACTGATGCACGTCAGTCGGGTCTGACCAGTCCGGAGTCACCTAGTGCAG” it is 8630 fluorescence intensity (a.u.); for “AGTAGCATTTTGTCTTGTTCGGATCATTGCCCTTGATTTACGGAGTCACCTAGTGCAG” it is 12200 fluorescence intensity (a.u.). The figure for “GCCGTCCGCCGTGAGCCGGTGCTGTCCACGACGTCGTCTTCGGAGTCACCTAGTGCAG” is 9640 fluorescence intensity (a.u.); for “CAGGGTCTGTGCTCAACACTCTATTCTTGTCGTTACTCCTCGGAGTCACCTAGTGCAG” it is 9780 fluorescence intensity (a.u.).

With “GGAAGGCTATGTTTCGTGTTTCCTTTCGTTTCTATTCCGACGGAGTCACCTAGTGCAG”, the binding signal was 10300 fluorescence intensity (a.u.).

For the sequence “CCATACCTAATCCGACGGTGCCCAAATATACCAATTATTTCGGAGTCACCTAGTGCAG”, the binding signal is 10500 fluorescence intensity (a.u.). Consider “TTCGCTCTCCGCCCACTTCCCCATCACGCGCGAGCGCTGCCGGAGTCACCTAGTGCAG”, for which the binding signal is 12900 fluorescence intensity (a.u.).

“AAGACGAACGGTCAAACATTTTTAAAAAAGTCAACGGCGTCGGAGTCACCTAGTGCAG”: the binding signal is 11900 fluorescence intensity (a.u.). Consider “ATCTTTTTTGAACTCGAGCAACGTTGCCCTGCCTGCTTTCCGGAGTCACCTAGTGCAG”, for which the binding signal is 9430 fluorescence intensity (a.u.). For “CAGGTTATAAGATGTTTTGACTTTAGTTAAAGTCAAAGTGCGGAGTCACCTAGTGCAG”, the binding signal was 10100 fluorescence intensity (a.u.). With “CCCACAAGCTTCCACGCACCCGCCGGCGTCAGCCTCCACCCGGAGTCACCTAGTGCAG”, the binding signal is 8120 fluorescence intensity (a.u.). In the case of “CGCGTCTCTCGTCATGTTGTCCACCTAAAAACCATACACACGGAGTCACCTAGTGCAG”, the binding signal is 8190 fluorescence intensity (a.u.). As for “TCTATGGGCCGCCTCCATCCCTCAAGTTACCATATCTTCTCGGAGTCACCTAGTGCAG”, the binding signal was 9350 fluorescence intensity (a.u.). With “TGGGAGAGCCATTGCTTTACTTGCTTGTTTGTTATCATCACGGAGTCACCTAGTGCAG”, the binding signal was 10100 fluorescence intensity (a.u.).

Take “GAGAGAGGAAGAACAGTACGTGTCTAGGGGCATTTTGGTACGGAGTCACCTAGTGCAG”: the binding signal is 9700 fluorescence intensity (a.u.).

For the sequence “CCTCATCCTTGCCCTTATCTGCCTGTCACCATCACCTGACCGGAGTCACCTAGTGCAG”, the binding signal was 12600 fluorescence intensity (a.u.). For the sequence “TGGCAGGATTTCTTATGTATTTACCAAATTTGGCAACAAACGGAGTCACCTAGTGCAG”, the binding signal is 9920 fluorescence intensity (a.u.). Take “GAAGTAGTTCTGACCTTTGAGCTGTACTCTTTTCTTTGTCCGGAGTCACCTAGTGCAG”: the binding signal is 8750 fluorescence intensity (a.u.).

Consider “GATGACTTTTTATTGAGCTCTTTGTTGATTTTTCTTGAGTCGGAGTCACCTAGTGCAG”, for which the binding signal is 11100 fluorescence intensity (a.u.). “AAGACGAATGGTCAAACATGTGAGAAAAAGTCAACGACGTCGGAGTCACCTAGTGCAG”: the binding signal is 12100 fluorescence intensity (a.u.). Consider “CTTTAAATATCCTTTGGCCCTTTCGCCTACCGCACTCACTCGGAGTCACCTAGTGCAG”, for which the binding signal is 8320 fluorescence intensity (a.u.). “AACCATATTCATTTCATTTCATTCGCGGCTTTAATCTCATCGGAGTCACCTAGTGCAG”: the binding signal was 11600 fluorescence intensity (a.u.). “GGCAACCACCTCAATTATTATTCCATTCCCTACCACCACTCGGAGTCACCTAGTGCAG”: the binding signal was 9980 fluorescence intensity (a.u.). “AATCTGTTATACACACACAACTTTTCAGTCATATTATCTCCGGAGTCACCTAGTGCAG”: the binding signal was 8780 fluorescence intensity (a.u.). With “TTGGTGCCAGACTGTTTTGCTTTCTAGATTTGGGGTTTGTCGGAGTCACCTAGTGCAG”, the binding signal is 8980 fluorescence intensity (a.u.).

“CGCTGGGGTGGAGGTCTGTCTTCTGTTGAAGGACAAGGGGCGGAGTCACCTAGTGCAG”: the binding signal is 8850 fluorescence intensity (a.u.).

On to “GGGCTTATGGTTACTGCTGCTGCCGCGGCTGCATCGAACACGGAGTCACCTAGTGCAG”, for which the binding signal is 9600 fluorescence intensity (a.u.). For “AGATGATGTCATTGACCATACAAGTTGAAAATAGGAGCAACGGAGTCACCTAGTGCAG”, the binding signal is 63300 fluorescence intensity (a.u.). The figure for “GCATTTGTTTCCGTCTTTTTTACATCCCGTTTGATCGGAACGGAGTCACCTAGTGCAG” is 8620 fluorescence intensity (a.u.); for “CTCGTTGTCGTGCTGCTTGTAATTCATCTAGTTTGTCTACCGGAGTCACCTAGTGCAG” it is 10000 fluorescence intensity (a.u.); for “GTCGCTTCTTCTTGGCCATTTCAGCTGTCATTTAGGAGTACGGAGTCACCTAGTGCAG” it is 9130 fluorescence intensity (a.u.). To “ATCATCGGTTATGTCTATCTCACAACTCAAAAAGTAACATCGGAGTCACCTAGTGCAG” belongs 8040 fluorescence intensity (a.u.). For “AGCGGTTCTGCAACTGTTTGCTATCATTTTTGTGCCGAGACGGAGTCACCTAGTGCAG”, the binding signal is 8900 fluorescence intensity (a.u.). Take “TTCACCCGTTTAGGTCGCCGCCTCGCCGCTTCCCACTCCCCGGAGTCACCTAGTGCAG”: the binding signal was 8510 fluorescence intensity (a.u.). “GTTTATACGTTTATACTTTCTTCATCATTTATGCCCAACTCGGAGTCACCTAGTGCAG”: the binding signal is 11000 fluorescence intensity (a.u.).

Take “CGGCTTGCATGGACGGATATTCGCCATATTCAGGTCGTTTCGGAGTCACCTAGTGCAG”: the binding signal is 9550 fluorescence intensity (a.u.). As to “TGTGATCAATGTACTGCCGCTTTTTTTATCTGCTGCATGACGGAGTCACCTAGTGCAG”, the binding signal was 14400 fluorescence intensity (a.u.). Regarding “TCAATGATGTGTTGTGTTTGCTCCATGGACCATGGTCCCTCGGAGTCACCTAGTGCAG”, the binding signal was 10600 fluorescence intensity (a.u.). The figure for “GTCCTTGTCTCTGCTCTGCCCCGCGCAATTAACTCTGCACCGGAGTCACCTAGTGCAG” is 11000 fluorescence intensity (a.u.); for “TTCGGGCCACCGCCTTGCGATTTTCCCATAGCCCCAGAGTCGGAGTCACCTAGTGCAG” it is 8250 fluorescence intensity (a.u.); for “GCTTTTACTTAAACTGATTGGTGCTGATGGGTATGTTTGTCGGAGTCACCTAGTGCAG” it is 8520 fluorescence intensity (a.u.).
